From article PMC5128726, “Mechanism and Regulation of DNA-Protein Crosslink Repair by the DNA-Dependent Metalloprotease SPRTN” come the findings set out here.

By UniProt entry, the sequences of proteins in these tests, tags left out. Where a name states a change or a piece, a line headed by the entry shows the natural chain unless it says otherwise.
UniProt Q9H040: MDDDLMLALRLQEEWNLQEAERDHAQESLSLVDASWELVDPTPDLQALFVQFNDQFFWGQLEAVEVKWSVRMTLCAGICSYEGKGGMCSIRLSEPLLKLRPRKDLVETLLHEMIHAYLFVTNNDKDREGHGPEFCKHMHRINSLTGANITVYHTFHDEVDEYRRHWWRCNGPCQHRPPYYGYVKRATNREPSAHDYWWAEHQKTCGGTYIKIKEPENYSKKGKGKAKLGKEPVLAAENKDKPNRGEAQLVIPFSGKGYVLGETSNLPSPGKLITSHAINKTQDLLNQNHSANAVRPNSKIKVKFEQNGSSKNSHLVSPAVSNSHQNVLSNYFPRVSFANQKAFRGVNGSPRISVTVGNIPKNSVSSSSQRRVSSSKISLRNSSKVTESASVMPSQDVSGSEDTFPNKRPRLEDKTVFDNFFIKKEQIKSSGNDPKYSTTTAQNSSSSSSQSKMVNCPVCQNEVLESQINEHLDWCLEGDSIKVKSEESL

The exact form of at least one protein or probe is not confirmed.

The series concerns the target SPRTN-auto (Homo sapiens) (UniProt Q9H040). As to the kind of experiment: EMSA. Conditions: 250 nM DNA, 0.5-1 uM protein, shift slightly less than full length; Oligo EMSA: protein in 250 mM NaCl, 50 mM HEPES pH 7.5, 10% glycerol mixed 1:1 with DNA in 0.2 mg/ml BSA; 20 min on ice; 6% PAGE; recombinant protein; protein details: N-terminal GST; label: 5' Alexa488; single-stranded DNA.

In the case of “ACGCTGCCGAATTCTACCAGTGCCTTGCTA [Alexa488 30-mer ss oligonucleotide]”, the binding result was “binds”.
